Results reported in PubChem BioAssay AID493014 (National Center for Advancing Translational Sciences (NCATS), 2011).
This is one part of the list. Shown are side measurements of this screen, not its main read-out; they come without a call. Most of these compounds were active or inconclusive in the main read-out, so they are no random draw. The note in brackets gives the kind of curve behind each potency; many fits are weak.

Test: qHTS Assay to Find Inhibitors of Chronic Active B-Cell Receptor Signaling
Settings: ABC-DLBCL IkBa-CBG/CBR reporter, luminescence ratio (green luciferase fused to IkBa over red control in TMD8 lymphoma cells), 4 h
Procedure, shortened: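 TMD8 ABC-DLBCL cells carrying doxycycline-inducible green luciferase fused to IkappaBalpha plus unfused red luciferase were exposed to compounds (up to 46 uM) for 4 hrs at 37C. Activity came from the overlap-corrected green/red luminescence ratio.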

[1] = measured here: CBR red luminescence, cell number
[2] = measured here: IkBa-CBG green luminescence

Row | SMILES | AC50 [1] | AC50 [2]
1 | Cc1cc(/C=C(\C#N)C(=O)O)c(C)n1-c1ccc(Br)cc1 | 5.01 µM [rising, full curve, poor fit] | –
2 | O=C(NNC(=O)c1ccc(Br)s1)c1csc(N2CCOCC2)n1 | 25.9 µM [falling, single point] | –
3 | CCN1C(=O)C(CC(=O)Nc2ccc(OC)cc2)N(CCc2ccc(F)cc2)C1=S (stereo not drawn) | 14.1 µM [falling, single point] | –
4 | Cc1cc(Cl)ccc1OCCNC(=S)NC(=O)c1cccnc1 | 14.1 µM [rising, single point] | –
5 | O=C(CSc1ccc2ccccc2c1)N1CCN(c2ccc(O)cc2)CC1 | 0.708 µM [rising, full curve, poor fit] | –
6 | Cn1cccc1C(=O)NNC(=O)COc1ccc(C#N)cc1 | 23.1 µM [rising, single point] | –
7 | Cc1cc(C)cc(NC(=O)NC(C)C2CCCO2)c1 (stereo not drawn) | 6.31 µM [rising, single point] | –
8 | COc1ccc(C(=O)c2ccc(Cl)cc2)cc1 | 29.1 µM [falling, single point] | –
9 | Nc1ccc(CSc2ccc(Cl)cc2)cc1 | 7.94 µM [falling, partial curve] | –
10 | O=C(Oc1coc(CSc2nnc(NC(=O)C3CC3)s2)cc1=O)c1ccccc1 | 0.517 µM [rising, full curve, poor fit] | –
11 | CC1=NN(Cc2ccccc2)C(=O)/C1=C/c1ccc(N(C)C)cc1 | 6.31 µM [rising, single point] | 3.16 µM [falling, single point]
12 | O=C(COc1ccc(F)cc1F)Nc1cccnc1 | 6.31 µM [rising, single point] | –
13 | O=C(/C=C/c1ccc(Cl)cc1)Nn1c(-c2cccs2)nc2ccccc2c1=O | 0.651 µM [falling, partial curve, poor fit] | –
14 | CCOC(=O)Cc1csc(NC(=O)CSc2nnc(-c3ccc(C)cc3)o2)n1 | 11.2 µM [rising, partial curve, poor fit] | –
15 | Cc1cc(C)cc(NC(=O)C2(c3ccccc3)CC2(Cl)Cl)c1 (stereo not drawn) | 6.31 µM [rising, full curve] | –
16 | CCCSc1nnc(-c2c[nH]c3ccccc23)n1CC | 0.731 µM [rising, full curve, poor fit] | –
17 | CC(C)=CCN1CCN(CCCc2ccccc2)CC1CCO (stereo not drawn) | 35.5 µM [rising, single point] | –
18 | COc1ccccc1/C=C/C(=O)Oc1cccc2cccnc12 | – | 35.5 µM [falling, single point]
19 | CCOc1ccccc1NC(=O)CSc1nncc2ccccc12 | 11.2 µM [falling, partial curve] | –
20 | Cc1ccc(-c2csc(NC(=O)CSc3nc(C)cs3)n2)cc1 | 2.59 µM [falling, full curve, poor fit] | –
21 | C=CCn1c(CSCc2ccccc2)nnc1SCC(=O)NCc1ccccc1 | 8.91 µM [falling, partial curve, poor fit] | –

From entry 15 to 16, copied from above:
Row | SMILES | AC50 [1] | AC50 [2]
15 | Cc1cc(C)cc(NC(=O)C2(c3ccccc3)CC2(Cl)Cl)c1 (stereo not drawn) | 6.31 µM [rising, full curve] | –
16 | CCCSc1nnc(-c2c[nH]c3ccccc23)n1CC | 0.731 µM [rising, full curve, poor fit] | –

(more compounds)

Row | SMILES | AC50 [1] | AC50 [2]
22 | CCCCN1CC(=O)N2[C@H]3c4cc(Br)ccc4OC[C@@H]3[C@H](C(=O)OCC)[C@]2(C)C1=O | 29.1 µM [falling, single point] | 20.6 µM [rising, partial curve, poor fit]
23 | CC(=O)Oc1ccccc1C(=O)Oc1ccc(/C=N/n2cnnc2)cc1 | 2 µM [falling, full curve] | –
24 | Cc1ccc(N2C(N)=C(C#N)C(c3cccs3)C3=C2CC(C)(C)CC3=O)cc1 (stereo not drawn) | 29.1 µM [falling, single point] | –
25 | CCC(C)NC(=O)c1cc2cc3ccc(OC)cc3nc2o1 (stereo not drawn) | 3.16 µM [rising, partial curve, poor fit] | –
26 | O=[N+]([O-])c1ccc(CSc2nnc(Cc3ccccc3)n2-c2ccc(F)cc2)cc1 | 20.6 µM [falling, single point] | –
27 | N#C/C(=C\c1ccc(N2CCOCC2)cc1)c1ccccc1 | 2.31 µM [rising, partial curve] | –
28 | CN(CC(=O)Nc1ccc(F)cc1)c1ccc(S(=O)(=O)N2CCCCC2)cc1[N+](=O)[O-] | 8.2 µM [falling, partial curve, poor fit] | –
29 | CCOC(=O)C(=O)Nc1sc(C(=O)N2CCOCC2)c(C)c1C#N | 1.58 µM [rising, partial curve, poor fit] | –
30 | C#CCNC(=O)C1=C[C@H](c2cn(C(C)=O)c3ccccc23)C[C@H](OCc2ccc(CO)cc2)O1 | 3.98 µM [rising, single point] | –
31 | Cc1nc2nc(-c3ccccc3)cc(=O)n2[nH]1 | 14.6 µM [falling, partial curve] | –
32 | COc1ccc(OC)c2sc(NC(=O)C(C)C)nc12 | 1.46 µM [falling, partial curve, poor fit] | –
33 | Cc1cc(C)cc(C(=O)NCC(=O)OCC(=O)Nc2cccnc2Cl)c1 | 35.5 µM [rising, single point] | –
34 | C[C@H](CO)N1C[C@H](C)[C@@H](CN(C)C(=O)Nc2ccccc2)Oc2ccc(NS(=O)(=O)c3ccc(F)cc3)cc2C1=O | 32.6 µM [rising, single point] | –
35 | O=C(CNC(=O)c1ccco1)OCC(=O)c1ccccc1 | 6.31 µM [rising, single point] | –
36 | O=C(CCCc1c[nH]c2ccccc12)NCc1ccccc1C(F)(F)F | 8.91 µM [falling, partial curve, poor fit] | –
37 | COc1ccc(OCCCc2c(C)n[nH]c2C)cc1 | 29.1 µM [rising, partial curve, poor fit] | –
38 | CC(=O)Nc1nc2cc3c(cc2s1)OCCO3 | 35.5 µM [falling, single point] | –
39 | COc1ccc(CCN2C(=O)NC(NC(C)=O)(C(F)(F)F)C2=O)cc1OC (stereo not drawn) | 16.4 µM [rising, partial curve, poor fit] | –
40 | CC(C)(C)c1ccc(C(=O)N/N=C/c2cccc(Cl)c2)cc1 | 2.06 µM [rising, partial curve, poor fit] | –
41 | Cc1ccc(Cc2nc3ccccc3[nH]2)cc1 | 1.58 µM [falling, full curve, poor fit] | –
